# In patent US20170145472A1, “METHOD OF DETECTING HELICASE ACTIVITY” (University of Macau, priority 2015, published 2017):
# Test: Direct quenching control on complex 9 or the complex 9+G-quadruplex ensemble
# Conditions: 20 μM ciprofloxacin
compound,measurement,value
"O=C(O)c1cn(C2CC2)c2cc(N3CCNCC3)c(F)cc2c1=O [ciprofloxacin, reference compound]",direct quenching effect on luminescence of complex 9 or the complex 9+G-quadruplex ensemble,no direct quenching effect
